According to the supplement of paper PMC8497498:
± gives the standard deviation of the averaged measurements. The list shows a part of the results. The data scatter; read single values as rough.

Columns and labels:
Settings in all cases: 10 µM
[1] = system: Plasmodium vivax liver stage (primary human hepatocyte culture); test: hypnozoite quantity inhibition (% inhibition); higher = more active against hypnozoites
[2] = system: Plasmodium vivax liver stage (primary human hepatocyte culture); test: schizont net growth area inhibition (% inhibition); higher = more active against liver schizonts
[3] = system: primary human hepatocytes; test: hepatic nuclei reduction relative to DMSO (100 - % of negative control); higher = more toxic to hepatocytes
[4] = assay mode: Prophylactic (treated before or shortly after infection), fixed day 6 post-infection
[5] = assay mode: Radical Cure (treated from day 5 post-infection for 3 days), fixed day 8 post-infection

SMILES	hypnozoite quantity inhibition [1, 4]	hypnozoite quantity inhibition [1, 5]	schizont net growth area inhibition [2, 4]	schizont net growth area inhibition [2, 5]	hepatic nuclei reduction [3, 4]	hepatic nuclei reduction [3, 5]
CC1CN(C(=O)c2sc3ccccc3c2Cl)CC(C)O1 (stereo not given)	-18.4	33.6	-37	50.6	-4%	-3%
CC(C)(C)c1cc(O)c(CN)c(C(C)(C)C)c1.Cl	-26	10	15.9	-38.4	6%	0%
O=C(NCCc1ccccc1)c1cc(-c2cccnc2)cnc1NCC1CC1	31	-36	42.5	46.5	-1%	-6%
Cc1ccc(-c2cc3c(nn2)-c2ccccc2C3=O)cc1	23.4	-44.4	4.6	-71.5	-2%	-5%
FC(F)(F)c1cccc(CNC2CCN(CCc3ccccc3)CC2)c1	27.2	-36.2	25.8	-51.3	7%	0%
Cc1ccc(-c2cc(C(=O)Nc3ccc(S(=O)(=O)N4CCCCC4)cc3)[nH]n2)c(O)c1	3.2	15.6	50.1	-66.4	-1%	-3%
O=C(NCCN1CCCC1)c1cc(NCCCCN2CCC(F)(F)CC2)nc2ccc(Cl)cc12	94	-36	102	79.9	1%	3%
COc1ccc2c(c1OC)C(=O)N1c3ccccc3N=C(c3ccc(C)cc3)CC21 (stereo not given)	0	-19.8	55.7	19.8	-4%	-4%
N=C(N)c1ccc(-c2ccc(-c3ccc(C(=N)N)cc3)o2)cc1	6	15	-37.3	33.3	-36%	-37%
Cc1cc(N2CCCC2)nc(Nc2ccc(NC(=O)CCc3ccccc3)cc2)n1	-11.4	59.1	50.4	-9.6	13%	-14%
CCOc1cc2c(cc1OCC)C(c1cc(Cl)ccc1O)NCC2 (stereo not given)	10.6	33.6	33	-26.4	-9%	12%
CC(C)(C)c1cnc(NC(=O)c2ccccc2O)s1	-24	24	-28.7	11.5	-3%	-4%
CCN(CC)CCCC(C)Nc1ccnc2cc(Cl)ccc12 (stereo not given)	-35	25.3 ± 22	-79.9	36 ± 72	-4%	-3.5 ± 3.5%
O=C(NCCN1CCCC1)c1cc(-c2ccc(CN3CCOCC3)cc2)nc2ccc(F)cc12	84	12	102	83.6	0%	-3%
Nc1ccc(S(=O)(=O)c2ccc(N)cc2)cc1	0	20	-78.7	-5	-8%	-1%
CCn1nc(-c2ccc(C(=O)OC)cc2)nc2c(=O)n(C)c(=O)nc1-2	46.1	48.2	51.7	-34.9	5%	-5%
CC(C)(C)OC(=O)N1CCC(Cn2nc(-c3cnc4ccccc4c3)c3c(N)ncnc32)CC1	-21	-8	8.1	17	4%	0%
CNc1snc(C)c1C(=O)NCCOc1ccc(OC)cc1	-41	6	65.9	-116	-9%	0%
CCCCNCC(O)(c1ccc(Cl)cc1)c1ccc(Cl)cc1	0.9	33.6	1.1	-17.1	-5%	-2%
Cc1ccc2c(C)nc(Nc3nc(C)cc(-c4ccccc4)n3)nc2c1	3.9	26.7	31.9	-50	-8%	4%
CN1CCN(c2ncnc3c2[nH]c2ccc(Cl)cc23)CC1	8.8	12.8	34.8	-47.3	-1%	-10%
COc1ccc(-c2nonc2NC(=O)c2cccc(Cl)c2)cc1OC	-12.5	63.4	30.1	15.6	-7%	14%
Cc1cc(NC(=O)C2c3ccccc3C(=O)N(CC(C)C)C2c2cccs2)no1 (stereo not given)	2.5	34.6	58	-36.1	-1%	5%
Cc1ccc(-c2cc(C(=O)Nc3cccnc3)c3cc(Br)ccc3n2)cc1	-3	-36	-69.9	-12.5	-10%	-1%
CC(C)C(Oc1cccc2ccccc12)C(=O)O (stereo not given)	41	19	42.2	84.2	-1%	-10%
COc1ccc(N2CCN(C(CNC(=O)CC(C)(C)C)c3ccc4c(c3)OCO4)CC2)cc1 (stereo not given)	-40.7	15.3	27.3	2.8	-12%	-2%
CCOc1ccc(CN2CCN(CC(O)COc3ccc(OCC(O)CN4CCN(Cc5ccc(OCC)cc5)CC4)cc3)CC2)cc1 (stereo not given)	-13.9	22.1	-11.2	48.8	0%	3%
O=C(NCCCN1CCC(N2CCCCC2)CC1)C1=Cc2cc(Br)ccc2OC1	-25.3	-3.5	81.7	-56	4%	-8%
CCOC(=O)c1c(NC(=O)c2c(F)c(F)c(F)c(F)c2F)sc(C(N)=O)c1C	14	24	30.9	45.3	-1%	-3%
CN(C)CCNC(=O)N1CCCN(c2ncnc3cc(-c4ccccc4)sc23)CC1	-2	-5	0.5	-44.4	-8%	-2%

Seven entries out of the list, arranged by molecular weight, smallest number first:
SMILES	hypnozoite quantity inhibition [1, 4]	hypnozoite quantity inhibition [1, 5]	schizont net growth area inhibition [2, 4]	schizont net growth area inhibition [2, 5]	hepatic nuclei reduction [3, 4]	hepatic nuclei reduction [3, 5]
CNc1snc(C)c1C(=O)NCCOc1ccc(OC)cc1	-41	6	65.9	-116	-9%	0%
Cc1ccc2c(C)nc(Nc3nc(C)cc(-c4ccccc4)n3)nc2c1	3.9	26.7	31.9	-50	-8%	4%
CCOc1cc2c(cc1OCC)C(c1cc(Cl)ccc1O)NCC2 (stereo not given)	10.6	33.6	33	-26.4	-9%	12%
COc1ccc(-c2nonc2NC(=O)c2cccc(Cl)c2)cc1OC	-12.5	63.4	30.1	15.6	-7%	14%
COc1ccc2c(c1OC)C(=O)N1c3ccccc3N=C(c3ccc(C)cc3)CC21 (stereo not given)	0	-19.8	55.7	19.8	-4%	-4%
Cc1ccc(-c2cc(C(=O)Nc3cccnc3)c3cc(Br)ccc3n2)cc1	-3	-36	-69.9	-12.5	-10%	-1%
Cc1ccc(-c2cc(C(=O)Nc3ccc(S(=O)(=O)N4CCCCC4)cc3)[nH]n2)c(O)c1	3.2	15.6	50.1	-66.4	-1%	-3%
